# Reference: the supplement of paper PMC10849652
# Chains of the proteins cited; added tags and fusions are not shown. Lines headed by an entry give the natural chain unless they say otherwise; changes in a name come on top.
# UniProt P0DPD7: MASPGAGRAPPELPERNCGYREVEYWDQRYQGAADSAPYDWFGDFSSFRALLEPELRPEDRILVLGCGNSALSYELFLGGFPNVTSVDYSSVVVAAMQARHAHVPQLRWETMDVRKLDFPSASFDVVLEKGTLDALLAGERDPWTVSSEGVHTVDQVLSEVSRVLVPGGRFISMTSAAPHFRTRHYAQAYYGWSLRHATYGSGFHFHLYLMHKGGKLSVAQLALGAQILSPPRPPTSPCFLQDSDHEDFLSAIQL
# UniProt Q8TEA8: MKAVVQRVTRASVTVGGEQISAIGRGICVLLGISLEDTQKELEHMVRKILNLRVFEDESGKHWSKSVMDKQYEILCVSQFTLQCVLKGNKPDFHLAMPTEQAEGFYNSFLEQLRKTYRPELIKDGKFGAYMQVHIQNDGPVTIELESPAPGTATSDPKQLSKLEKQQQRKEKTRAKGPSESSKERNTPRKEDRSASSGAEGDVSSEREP
# UniProt P51452: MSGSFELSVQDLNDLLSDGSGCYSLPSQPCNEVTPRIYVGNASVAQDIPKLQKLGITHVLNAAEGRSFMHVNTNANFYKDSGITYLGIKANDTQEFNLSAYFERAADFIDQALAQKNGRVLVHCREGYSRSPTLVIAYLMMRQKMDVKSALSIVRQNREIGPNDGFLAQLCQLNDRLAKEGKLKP
# UniProt Q9BUP0: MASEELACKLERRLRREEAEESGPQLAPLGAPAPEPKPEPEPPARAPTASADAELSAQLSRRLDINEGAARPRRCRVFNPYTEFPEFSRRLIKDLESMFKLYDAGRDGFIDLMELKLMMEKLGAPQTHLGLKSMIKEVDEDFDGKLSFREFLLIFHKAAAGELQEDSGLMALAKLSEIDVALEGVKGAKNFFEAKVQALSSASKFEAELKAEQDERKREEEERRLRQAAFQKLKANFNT
# UniProt Q15029: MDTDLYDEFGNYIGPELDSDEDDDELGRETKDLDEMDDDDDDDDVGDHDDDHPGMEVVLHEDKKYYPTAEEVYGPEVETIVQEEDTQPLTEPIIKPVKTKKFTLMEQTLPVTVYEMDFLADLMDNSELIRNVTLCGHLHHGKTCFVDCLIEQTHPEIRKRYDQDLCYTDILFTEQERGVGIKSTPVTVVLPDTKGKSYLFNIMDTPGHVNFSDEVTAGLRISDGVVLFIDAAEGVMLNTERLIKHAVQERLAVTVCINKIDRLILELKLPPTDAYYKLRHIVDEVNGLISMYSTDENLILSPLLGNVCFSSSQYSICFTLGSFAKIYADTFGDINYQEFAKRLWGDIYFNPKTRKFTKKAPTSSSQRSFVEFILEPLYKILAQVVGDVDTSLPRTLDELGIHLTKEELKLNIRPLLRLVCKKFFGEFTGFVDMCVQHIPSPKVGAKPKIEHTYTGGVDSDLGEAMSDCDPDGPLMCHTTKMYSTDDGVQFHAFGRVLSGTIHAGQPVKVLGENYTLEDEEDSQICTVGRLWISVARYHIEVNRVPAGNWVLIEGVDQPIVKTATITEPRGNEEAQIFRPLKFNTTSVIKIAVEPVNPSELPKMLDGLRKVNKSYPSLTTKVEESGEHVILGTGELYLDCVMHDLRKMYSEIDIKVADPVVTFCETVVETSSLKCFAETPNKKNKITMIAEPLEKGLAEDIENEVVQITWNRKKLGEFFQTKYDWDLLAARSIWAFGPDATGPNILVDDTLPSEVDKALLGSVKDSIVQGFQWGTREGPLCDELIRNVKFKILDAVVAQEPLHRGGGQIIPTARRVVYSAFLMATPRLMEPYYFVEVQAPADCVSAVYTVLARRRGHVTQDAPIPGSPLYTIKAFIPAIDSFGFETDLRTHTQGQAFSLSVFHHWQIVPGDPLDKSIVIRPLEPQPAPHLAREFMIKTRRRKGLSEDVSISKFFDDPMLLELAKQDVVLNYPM
# UniProt Q9Y6G9, whole entry, looked up: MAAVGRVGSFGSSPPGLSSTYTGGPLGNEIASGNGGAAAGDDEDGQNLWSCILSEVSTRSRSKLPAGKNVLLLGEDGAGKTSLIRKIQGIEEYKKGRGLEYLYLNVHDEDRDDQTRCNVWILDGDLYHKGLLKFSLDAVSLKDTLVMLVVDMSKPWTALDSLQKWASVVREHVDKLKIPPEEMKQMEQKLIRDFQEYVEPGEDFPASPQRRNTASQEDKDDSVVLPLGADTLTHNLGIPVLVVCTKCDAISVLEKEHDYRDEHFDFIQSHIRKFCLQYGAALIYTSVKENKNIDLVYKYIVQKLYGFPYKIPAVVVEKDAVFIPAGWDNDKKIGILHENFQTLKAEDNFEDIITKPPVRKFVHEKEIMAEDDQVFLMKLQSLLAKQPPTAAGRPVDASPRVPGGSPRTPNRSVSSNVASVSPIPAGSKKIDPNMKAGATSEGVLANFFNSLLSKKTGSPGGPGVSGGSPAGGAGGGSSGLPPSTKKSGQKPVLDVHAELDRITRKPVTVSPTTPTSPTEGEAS
# UniProt Q9H4M9: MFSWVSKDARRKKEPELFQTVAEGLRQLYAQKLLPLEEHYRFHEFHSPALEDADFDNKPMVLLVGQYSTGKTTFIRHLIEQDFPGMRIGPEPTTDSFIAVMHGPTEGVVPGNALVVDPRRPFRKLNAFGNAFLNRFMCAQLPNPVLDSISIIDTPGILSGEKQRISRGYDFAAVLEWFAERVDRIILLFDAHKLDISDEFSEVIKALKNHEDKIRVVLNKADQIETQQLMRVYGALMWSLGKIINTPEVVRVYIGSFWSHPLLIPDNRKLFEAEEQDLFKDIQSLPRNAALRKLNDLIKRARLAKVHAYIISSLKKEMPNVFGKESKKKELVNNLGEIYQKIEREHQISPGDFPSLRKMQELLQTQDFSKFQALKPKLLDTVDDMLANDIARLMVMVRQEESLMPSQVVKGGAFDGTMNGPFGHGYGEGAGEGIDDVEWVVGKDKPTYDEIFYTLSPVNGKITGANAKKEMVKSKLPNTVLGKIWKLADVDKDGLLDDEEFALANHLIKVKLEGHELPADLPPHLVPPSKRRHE
# UniProt Q56P03: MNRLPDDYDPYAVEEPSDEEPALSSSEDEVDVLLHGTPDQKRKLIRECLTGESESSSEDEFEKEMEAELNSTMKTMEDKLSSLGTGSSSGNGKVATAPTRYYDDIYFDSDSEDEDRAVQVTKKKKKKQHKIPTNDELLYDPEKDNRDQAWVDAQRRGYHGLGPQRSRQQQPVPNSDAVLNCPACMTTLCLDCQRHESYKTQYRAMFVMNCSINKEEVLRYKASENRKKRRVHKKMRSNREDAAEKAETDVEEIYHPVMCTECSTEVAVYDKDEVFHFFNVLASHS
# UniProt Q96G46: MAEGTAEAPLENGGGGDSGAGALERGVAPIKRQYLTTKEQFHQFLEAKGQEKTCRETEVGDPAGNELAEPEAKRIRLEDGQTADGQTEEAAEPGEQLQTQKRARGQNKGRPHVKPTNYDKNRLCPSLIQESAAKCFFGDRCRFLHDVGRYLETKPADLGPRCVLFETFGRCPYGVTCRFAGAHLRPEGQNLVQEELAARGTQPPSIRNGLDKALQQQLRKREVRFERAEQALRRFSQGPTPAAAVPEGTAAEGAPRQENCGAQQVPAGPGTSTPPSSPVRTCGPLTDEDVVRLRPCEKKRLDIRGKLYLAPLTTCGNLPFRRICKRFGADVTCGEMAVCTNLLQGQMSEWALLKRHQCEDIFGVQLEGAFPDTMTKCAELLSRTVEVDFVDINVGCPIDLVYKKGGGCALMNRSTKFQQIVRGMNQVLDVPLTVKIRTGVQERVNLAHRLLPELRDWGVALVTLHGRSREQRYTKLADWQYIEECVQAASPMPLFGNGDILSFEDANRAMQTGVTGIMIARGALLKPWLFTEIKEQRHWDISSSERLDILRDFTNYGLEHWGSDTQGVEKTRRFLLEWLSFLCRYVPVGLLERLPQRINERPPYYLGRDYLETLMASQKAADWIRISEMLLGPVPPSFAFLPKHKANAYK
# UniProt Q9BVC3, whole entry, looked up: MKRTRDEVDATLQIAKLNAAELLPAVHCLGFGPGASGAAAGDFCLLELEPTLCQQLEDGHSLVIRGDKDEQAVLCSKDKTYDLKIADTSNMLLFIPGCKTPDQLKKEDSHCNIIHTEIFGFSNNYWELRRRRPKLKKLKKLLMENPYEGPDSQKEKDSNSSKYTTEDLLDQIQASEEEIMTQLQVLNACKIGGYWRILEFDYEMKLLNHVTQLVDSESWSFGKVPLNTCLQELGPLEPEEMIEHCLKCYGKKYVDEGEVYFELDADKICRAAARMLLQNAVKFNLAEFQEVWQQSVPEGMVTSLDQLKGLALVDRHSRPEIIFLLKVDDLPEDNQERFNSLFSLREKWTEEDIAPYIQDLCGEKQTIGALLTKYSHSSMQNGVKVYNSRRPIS
# UniProt O00418: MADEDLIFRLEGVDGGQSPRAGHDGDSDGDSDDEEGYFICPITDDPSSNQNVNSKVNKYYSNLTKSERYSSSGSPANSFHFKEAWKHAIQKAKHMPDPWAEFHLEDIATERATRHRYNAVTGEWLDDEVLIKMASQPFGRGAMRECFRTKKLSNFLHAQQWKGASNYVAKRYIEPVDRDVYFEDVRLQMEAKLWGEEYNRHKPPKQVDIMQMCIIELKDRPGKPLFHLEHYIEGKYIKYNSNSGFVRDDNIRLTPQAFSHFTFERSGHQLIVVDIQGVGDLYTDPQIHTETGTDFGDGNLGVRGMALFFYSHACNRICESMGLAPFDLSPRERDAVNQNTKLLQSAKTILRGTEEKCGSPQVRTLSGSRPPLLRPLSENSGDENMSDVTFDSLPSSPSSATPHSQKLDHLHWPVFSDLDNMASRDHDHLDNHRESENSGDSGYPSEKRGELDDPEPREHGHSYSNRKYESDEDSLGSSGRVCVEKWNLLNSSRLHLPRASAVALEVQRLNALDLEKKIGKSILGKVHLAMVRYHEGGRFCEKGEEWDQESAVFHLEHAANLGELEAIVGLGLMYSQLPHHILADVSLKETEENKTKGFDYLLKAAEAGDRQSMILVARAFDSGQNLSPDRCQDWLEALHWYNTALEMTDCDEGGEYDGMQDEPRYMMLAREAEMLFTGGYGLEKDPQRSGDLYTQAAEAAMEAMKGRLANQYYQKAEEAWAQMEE
# UniProt Q9NX74: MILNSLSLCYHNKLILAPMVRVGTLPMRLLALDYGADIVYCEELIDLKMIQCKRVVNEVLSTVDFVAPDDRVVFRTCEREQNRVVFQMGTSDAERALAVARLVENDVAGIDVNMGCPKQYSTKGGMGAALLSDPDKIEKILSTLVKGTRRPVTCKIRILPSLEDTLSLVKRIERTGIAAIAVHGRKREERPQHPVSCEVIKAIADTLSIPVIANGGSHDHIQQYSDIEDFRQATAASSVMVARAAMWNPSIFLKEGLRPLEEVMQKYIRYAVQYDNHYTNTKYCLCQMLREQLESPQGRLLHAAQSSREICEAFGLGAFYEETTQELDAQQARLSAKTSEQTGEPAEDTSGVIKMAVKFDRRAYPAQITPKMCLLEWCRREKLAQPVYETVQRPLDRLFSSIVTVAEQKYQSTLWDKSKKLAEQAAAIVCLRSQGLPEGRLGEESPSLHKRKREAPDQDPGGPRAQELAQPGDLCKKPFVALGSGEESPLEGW
# UniProt Q9H410: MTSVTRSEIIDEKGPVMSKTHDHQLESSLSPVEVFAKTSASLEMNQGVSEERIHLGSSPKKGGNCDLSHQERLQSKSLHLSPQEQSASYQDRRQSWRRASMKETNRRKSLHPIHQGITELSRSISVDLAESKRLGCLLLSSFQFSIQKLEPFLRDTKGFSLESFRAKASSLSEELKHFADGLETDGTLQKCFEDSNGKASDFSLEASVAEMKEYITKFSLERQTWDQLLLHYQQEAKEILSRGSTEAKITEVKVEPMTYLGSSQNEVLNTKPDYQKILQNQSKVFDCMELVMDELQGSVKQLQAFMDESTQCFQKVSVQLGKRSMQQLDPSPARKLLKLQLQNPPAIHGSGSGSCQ
# UniProt O95620: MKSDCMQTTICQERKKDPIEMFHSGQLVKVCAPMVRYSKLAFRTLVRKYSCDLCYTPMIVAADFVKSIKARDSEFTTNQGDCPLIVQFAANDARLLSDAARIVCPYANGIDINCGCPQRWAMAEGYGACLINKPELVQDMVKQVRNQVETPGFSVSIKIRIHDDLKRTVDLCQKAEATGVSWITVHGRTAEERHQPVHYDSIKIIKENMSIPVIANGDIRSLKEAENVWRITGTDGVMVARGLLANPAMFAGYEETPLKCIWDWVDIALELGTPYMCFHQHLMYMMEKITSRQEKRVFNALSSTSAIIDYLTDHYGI
# Some of the results follow.
# What was measured:
# Assay in all cases: log2 fold change, soluble protein after heating vs DMSO (PISA); higher = thermal stabilisation; K562 lysate, 10 uM; active = over 0.2 and 3.5 SD of the protein, either way, in both replicates (recomputed)
# vemurafenib = compound: CCCS(=O)(=O)Nc1ccc(F)c(C(=O)c2c[nH]c3ncc(-c4ccc(Cl)cc4)cc23)c1F [vemurafenib]
# Outline: (§1)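 Log-two fold change in thermal stability relative to solvent controls is reported from duplicates. For each sample, crude K562 extract from dounce-homogenised pellets in PBS pH 7.4 with 1 mM MgCl2, at 1 mg/mL protein, was treated with 10 μM compound for 30 min. Aliquots heated for 3 min across 48°C-58°C were pooled, brought to 0.5% NP-40 at 4°C and cleared at 21,000xg for 90 min. The supernatant was quantified by TMTpro 16plex LC-MS/MS with channel sums equalised.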
# [1] = compound: CCCS(=O)(=O)Nc1ccc(F)c(C(=O)c2c[nH]c3ncc(Cl)cc23)c1F
# Outline: as §1
# barasertib = compound: CCN(CCCOc1ccc2c(Nc3cc(CC(=O)Nc4cccc(F)c4)[nH]n3)ncnc2c1)CCOP(=O)(O)O [barasertib]
# Outline: as §1
# [2] = compound: CC[C@@H]1C(=O)N(C)c2cnc(Nc3ccc(C(=O)NC4CCN(C)CC4)cc3OC)nc2N1C1CCCC1
# Outline: as §1
# volasertib = compound: CC[C@@H]1C(=O)N(C)c2cnc(Nc3ccc(C(=O)N[C@H]4CC[C@H](N5CCN(CC6CC6)CC5)CC4)cc3OC)nc2N1C(C)C [volasertib]
# Outline: as §1
# [3] = compound: CCn1c(C(=O)N(C2CC2)C2CC2)cc2c3c(ncn3C)c(Nc3cc(C)n(C)n3)nc21
# Outline: as §1
# [4] = compound: CCn1cc(-c2ccnc3[nH]c(-c4cccc(CN(C)C)c4)cc23)c(-c2ccc(NC(=O)N(C)C)cc2)n1
# Outline: as §1
# [5] = compound: CN1CCC(CNc2ccc3ncc(-c4cccc(OC(F)(F)F)c4)n3n2)CC1
# Outline: as §1
# saracatinib = compound: CN1CCN(CCOc2cc(OC3CCOCC3)c3c(Nc4c(Cl)ccc5c4OCO5)ncnc3c2)CC1 [saracatinib]
# Outline: as §1
# sotrastaurin = compound: CN1CCN(c2nc(C3=C(c4c[nH]c5ccccc45)C(=O)NC3=O)c3ccccc3n2)CC1 [sotrastaurin]
# Outline: as §1
# alvocidib = compound: CN1CC[C@H](c2c(O)cc(O)c3c(=O)cc(-c4ccccc4Cl)oc23)[C@H](O)C1 [alvocidib]
# Outline: as §1
# Tubastatin A = compound: CN1CCc2c(c3ccccc3n2Cc2ccc(C(=O)NO)cc2)C1 [Tubastatin A]
# Outline: as §1
# [6] = compound: CNC(=O)C1=CC=CC=C1NC2=NC(=NC=C2Cl)NC3=C(C=C(C=C3)N4CCOCC4)OC
# Outline: as §1
# defactinib = compound: CNC(=O)c1ccc(Nc2ncc(C(F)(F)F)c(NCc3nccnc3N(C)S(C)(=O)=O)n2)cc1 [defactinib]
# Outline: as §1
# [7] = compound: CNc1nc(-c2ccc3c(N)n[nH]c3c2)cc(N2C[C@@H](C(=O)NC3CCCCC3)CC[C@H]2C)n1
# Outline: as §1
# encorafenib = compound: COC(=O)N[C@@H](C)CNc1nccc(-c2cn(C(C)C)nc2-c2cc(Cl)cc(NS(C)(=O)=O)c2F)n1 [encorafenib]
# Outline: as §1
# [8] = compound: COC(=O)[C@H](CCSC)NC(=O)C1=C(C=C(C=C1)NC[C@H](CS)N)C2=CC=CC=C2
# Outline: as §1
# alisertib = compound: COc1cc(Nc2ncc3c(n2)-c2ccc(Cl)cc2C(c2c(F)cccc2OC)=NC3)ccc1C(=O)O [alisertib]
# Outline: as §1
# [9] = compound: COc1cc2nc(-c3cc(F)ccc3O)nc(N[C@@H]3CNC[C@H]3C(C)(C)O)c2cc1OC
# Outline: as §1
# gefitinib = compound: COc1cc2ncnc(Nc3ccc(F)c(Cl)c3)c2cc1OCCCN1CCOCC1 [gefitinib]
# Outline: as §1
Target,log2 fold change (vemurafenib),log2 fold change [1],log2 fold change (barasertib),log2 fold change [2],log2 fold change (volasertib),log2 fold change [3],log2 fold change [4],log2 fold change [5],log2 fold change (saracatinib),log2 fold change (sotrastaurin),log2 fold change (alvocidib),log2 fold change (Tubastatin A),log2 fold change [6],log2 fold change (defactinib),log2 fold change [7],log2 fold change (encorafenib),log2 fold change [8],log2 fold change (alisertib),log2 fold change [9],log2 fold change (gefitinib)
EEF1AKMT4 (UniProt P0DPD7),inactive: 0.135,inactive: 0.008,inactive: 0.126,inactive: -0.025,inactive: -0.072,inactive: -0.035,inactive: -0.129,inactive: 0.052,inactive: -0.033,inactive: -0.004,inactive: -0.029,inactive: -0.027,inactive: 0.074,inactive: 0.03,inactive: 0.188,inactive: 0.042,inactive: 0.012,inactive: 0.037,inactive: 0.068,inactive: 0.004
DTD1 (UniProt Q8TEA8),inactive: 0.015,inactive: -0.015,inactive: -0.004,inactive: -0.046,inactive: 0.051,inactive: -0.054,inactive: -0.01,inactive: 0.018,inactive: 0.048,inactive: 0.025,inactive: -0.023,inactive: 0.019,inactive: -0.066,inactive: 0.005,inactive: 0.031,inactive: -0.011,inactive: -0.024,inactive: 0.012,inactive: -0.008,inactive: 0.054
DUSP3 (UniProt P51452),inactive: 0.004,inactive: 0.022,inactive: 0.031,inactive: -0.005,inactive: 0.013,inactive: 0.027,inactive: -0.044,inactive: -0.005,inactive: 0.009,inactive: -0.008,inactive: 0.009,inactive: 0.029,inactive: 0,inactive: 0.041,inactive: 0.035,inactive: 0.014,inactive: -0.097,inactive: -0.03,inactive: -0.01,inactive: -0.036
EFHD1 (UniProt Q9BUP0),inactive: 0.019,inactive: 0.04,inactive: 0.001,inactive: -0.053,inactive: 0.019,inactive: 0.028,inactive: -0.09,inactive: 0.064,inactive: -0.016,inactive: 0.013,inactive: -0.144,inactive: 0.007,inactive: 0.026,inactive: 0.015,inactive: 0.018,inactive: 0.047,inactive: -0.023,inactive: -0.035,inactive: 0.004,inactive: 0.081
EFTUD2 (UniProt Q15029),inactive: 0.001,inactive: 0.021,inactive: -0.009,inactive: 0.008,inactive: 0.013,inactive: 0.009,inactive: 0.022,inactive: -0.005,inactive: 0.009,inactive: -0.006,inactive: 0.017,inactive: -0.01,inactive: 0.01,inactive: -0.001,inactive: 0.034,inactive: -0.009,inactive: -0.03,inactive: -0.009,inactive: -0.001,inactive: 0.001
EHD4 (UniProt Q9H223),inactive: 0.037,inactive: -0.022,inactive: 0.033,inactive: -0.02,inactive: -0.094,inactive: 0.036,inactive: -0.067,inactive: -0.034,inactive: 0.006,inactive: 0.019,inactive: 0.024,inactive: -0.102,inactive: -0.002,inactive: -0.014,inactive: -0.111,inactive: -0.021,inactive: 0.027,inactive: 0.041,inactive: 0.013,inactive: 0.019
DYNC1LI1 (UniProt Q9Y6G9),inactive: 0.029,inactive: 0,inactive: -0.004,inactive: 0.003,inactive: -0.03,inactive: 0.001,inactive: -0.048,inactive: 0.016,inactive: 0.002,inactive: 0.001,inactive: -0.004,inactive: -0.014,inactive: 0.002,inactive: 0.012,inactive: -0.014,inactive: 0.007,inactive: -0.069,inactive: 0.008,inactive: -0.002,inactive: -0.015
EHD1 (UniProt Q9H4M9),inactive: 0.032,inactive: 0.006,inactive: -0.021,inactive: -0.009,inactive: -0.037,inactive: 0.012,inactive: 0.035,inactive: -0.079,inactive: -0.012,inactive: 0.002,inactive: 0.058,inactive: -0.007,inactive: 0,inactive: -0.021,inactive: 0.012,inactive: -0.022,inactive: 0.068,inactive: -0.013,inactive: 0.004,inactive: -0.015
"EEF1A1, A0A087WVQ9",inactive: 0.011,inactive: 0.047,inactive: -0.069,inactive: 0.027,inactive: -0.003,inactive: -0.026,inactive: -0.016,inactive: -0.12,inactive: 0.077,inactive: 0.013,inactive: -0.005,inactive: -0.102,inactive: 0.042,inactive: 0.062,inactive: 0.071,inactive: 0.011,inactive: 0.115,inactive: -0.073,inactive: 0.026,inactive: -0.054
EAPP (UniProt Q56P03),inactive: 0.246,inactive: 0.038,inactive: -0.048,inactive: 0.06,inactive: 0.02,inactive: 0.009,inactive: -0.085,inactive: -0.092,inactive: 0.034,inactive: -0.008,inactive: 0.048,inactive: -0.025,inactive: 0.078,inactive: -0.017,inactive: 0.107,inactive: -0.014,inactive: -0.053,inactive: -0.042,inactive: 0.017,inactive: -0.03
DUS3L (UniProt Q96G46),inactive: -0.055,inactive: 0.004,inactive: -0.038,inactive: -0.025,inactive: 0.005,inactive: -0.043,active: 0.246,inactive: -0.048,inactive: 0.021,inactive: 0.033,inactive: 0.076,inactive: -0.065,inactive: -0.012,inactive: -0.023,inactive: 0.001,inactive: 0.091,inactive: -0.024,inactive: -0.02,inactive: 0.036,inactive: -0.005
DSCC1 (UniProt Q9BVC3),inactive: 0.021,inactive: 0.067,inactive: -0.061,inactive: -0.025,inactive: -0.062,inactive: -0.054,inactive: -0.084,inactive: -0.018,inactive: -0.005,inactive: 0.036,inactive: -0.026,inactive: -0.002,inactive: 0.05,inactive: -0.027,inactive: 0.03,inactive: 0.096,inactive: 0.048,inactive: 0.05,inactive: 0.171,inactive: -0.066
EEF2K (UniProt O00418),inactive: 0.037,inactive: 0.089,inactive: 0.019,inactive: -0.107,inactive: -0.045,inactive: 0.025,inactive: -0.028,inactive: -0.001,inactive: 0.028,inactive: 0.033,inactive: 0,inactive: -0.131,inactive: 0.035,inactive: -0.003,inactive: -0.001,inactive: 0.025,inactive: 0.112,inactive: 0.009,inactive: -0.008,inactive: -0.039
DUS2 (UniProt Q9NX74),inactive: 0.022,inactive: 0.032,inactive: -0.026,inactive: -0.033,inactive: -0.071,inactive: -0.016,inactive: -0.095,inactive: 0.023,inactive: -0.095,inactive: -0.017,inactive: 0.056,inactive: -0.084,inactive: 0.013,inactive: 0.016,inactive: -0.045,inactive: -0.027,active: 0.352,inactive: -0.007,inactive: 0.013,inactive: 0.026
DSN1 (UniProt Q9H410),inactive: 0,inactive: 0.043,inactive: 0.007,inactive: 0.034,inactive: 0.001,inactive: 0.001,inactive: -0.017,inactive: 0.01,inactive: 0.034,inactive: 0.003,inactive: -0.046,inactive: -0.087,inactive: 0.076,inactive: 0.059,inactive: 0.04,inactive: 0.006,inactive: 0.107,inactive: -0.005,inactive: 0.004,inactive: 0
DUS4L (UniProt O95620),inactive: 0.039,inactive: 0.056,inactive: -0.01,inactive: 0.033,inactive: -0.017,inactive: 0.045,inactive: -0.138,inactive: 0,inactive: 0.06,inactive: -0.032,inactive: 0.001,inactive: -0.012,inactive: -0.028,inactive: 0.024,inactive: 0.079,inactive: 0.06,inactive: -0.006,inactive: -0.03,inactive: 0.053,inactive: 0.057

# Only log2 fold change (alvocidib) (two entries from above):
Target,log2 fold change (alvocidib)
DUSP3 (UniProt P51452),inactive: 0.009
EAPP (UniProt Q56P03),inactive: 0.048
